PubChem BioAssay AID1259254 – NCATS, 2017

Purpose: 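Finding genes that stop cells copying their DNA twice in one cycle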 (primary screen)
Cell system: human HCT116 colorectal cancer cells
Reagents: single siRNA against human genes
Duration: 3 days
Measurement: 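Nuclei stained with Hoechst and imaged; cell-cycle phase assigned by DNA content; G2 share scaled per plate, non-targeting siRNA 0%, GMNN siRNA 100%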
Reading the numbers: G2 robust z-score and G2 cells, % of GMNN control: higher = more G2 cells, more excess DNA replication; raw share of cells in G2: higher = larger share of cells with G2 DNA content
Hit rule: 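Active siRNAs have a G2 robust z of 5 or more median absolute deviations over the median, which in these data means about 38% or higher of GMNN control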
The whole screen tested about 59,000 reagents; below is a part drawn at random. About 1,550 of them (2.6%) count as active. 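G2 share is only a proxy for re-replication; each gene was hit by three separate siRNAs, and active genes were retested.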 The raw values are shown without normalisation. Reagents against one gene are numbered here. Reagent sequences are not shown. Not stated in the record: the amount of reagent.

gene symbol	reagent no.	G2 robust z-score	G2 cells, % of GMNN control	raw share of cells in G2 (%)	Call
PPP2R2A	1	1.94	16.6	10.2	inactive
PPP2R2A	2	1.98	16.9	9.4	inactive
PPP2R2A	3	-0.327	0.669	3.7	inactive
ASMTL	1	-0.93	-3.57	4.01	inactive
ASMTL	2	-0.856	-3.05	3.15	inactive
ASMTL	3	0.742	8.19	7.64	inactive
ZNF771	1	0.513	6.57	5.11	inactive
ZNF771	2	-0.334	0.621	6.19	inactive
ZNF771	3	0.17	4.16	4.94	inactive
PNOC	1	-0.354	0.476	5.18	inactive
PNOC	2	-0.369	0.369	4.37	inactive
PNOC	3	0.332	5.3	5.27	inactive
ZNF718	1	2.19	18.4	9.41	inactive
ZNF718	2	3.15	25.2	11.9	inactive
ZNF718	3	0.564	6.93	5.96	inactive
CMTR1	1	-0.56	-0.973	4.6	inactive
CMTR1	2	-0.789	-2.58	3.07	inactive
CMTR1	3	0.191	4.31	4.79	inactive
ANKRD50	1	-0.395	0.191	4.42	inactive
ANKRD50	2	-0.154	1.88	5.36	inactive
ANKRD50	3	-0.302	0.846	3.3	inactive
NUP210	1	0.578	7.04	5.87	inactive
NUP210	2	-0.633	-1.49	5.33	inactive
NUP210	3	-0.156	1.87	4.12	inactive
TDRKH	1	1.97	16.8	13.1	inactive
TDRKH	2	3.64	28.6	18.1	inactive
TDRKH	3	-1.08	-4.66	2.33	inactive
FAM24A	1	-0.439	-0.123	1.78	inactive
FAM24A	2	1.21	11.5	8.69	inactive
FAM24A	3	-0.52	-0.693	3.12	inactive

Part of the list above, set out differently.
{"gene symbol": "CMTR1", "reagent no.": 1, "G2 robust z-score": -0.56, "G2 cells, % of GMNN control": -0.973, "raw share of cells in G2 (%)": 4.6, "Call": "inactive"}
{"gene symbol": "CMTR1", "reagent no.": 2, "G2 robust z-score": -0.789, "G2 cells, % of GMNN control": -2.58, "raw share of cells in G2 (%)": 3.07, "Call": "inactive"}
{"gene symbol": "CMTR1", "reagent no.": 3, "G2 robust z-score": 0.191, "G2 cells, % of GMNN control": 4.31, "raw share of cells in G2 (%)": 4.79, "Call": "inactive"}
{"gene symbol": "ANKRD50", "reagent no.": 1, "G2 robust z-score": -0.395, "G2 cells, % of GMNN control": 0.191, "raw share of cells in G2 (%)": 4.42, "Call": "inactive"}
{"gene symbol": "ANKRD50", "reagent no.": 2, "G2 robust z-score": -0.154, "G2 cells, % of GMNN control": 1.88, "raw share of cells in G2 (%)": 5.36, "Call": "inactive"}
{"gene symbol": "ANKRD50", "reagent no.": 3, "G2 robust z-score": -0.302, "G2 cells, % of GMNN control": 0.846, "raw share of cells in G2 (%)": 3.3, "Call": "inactive"}
{"gene symbol": "NUP210", "reagent no.": 1, "G2 robust z-score": 0.578, "G2 cells, % of GMNN control": 7.04, "raw share of cells in G2 (%)": 5.87, "Call": "inactive"}
{"gene symbol": "NUP210", "reagent no.": 2, "G2 robust z-score": -0.633, "G2 cells, % of GMNN control": -1.49, "raw share of cells in G2 (%)": 5.33, "Call": "inactive"}
{"gene symbol": "NUP210", "reagent no.": 3, "G2 robust z-score": -0.156, "G2 cells, % of GMNN control": 1.87, "raw share of cells in G2 (%)": 4.12, "Call": "inactive"}
{"gene symbol": "TDRKH", "reagent no.": 1, "G2 robust z-score": 1.97, "G2 cells, % of GMNN control": 16.8, "raw share of cells in G2 (%)": 13.1, "Call": "inactive"}
{"gene symbol": "TDRKH", "reagent no.": 2, "G2 robust z-score": 3.64, "G2 cells, % of GMNN control": 28.6, "raw share of cells in G2 (%)": 18.1, "Call": "inactive"}
{"gene symbol": "TDRKH", "reagent no.": 3, "G2 robust z-score": -1.08, "G2 cells, % of GMNN control": -4.66, "raw share of cells in G2 (%)": 2.33, "Call": "inactive"}

Additional results follow:
gene symbol	reagent no.	G2 robust z-score	G2 cells, % of GMNN control	raw share of cells in G2 (%)	Call
DENND11	1	0.592	7.13	7.16	inactive
DENND11	2	0.00146	2.98	5.88	inactive
DENND11	3	-0.147	1.93	3.64	inactive
EXOSC7	1	0.663	7.63	9.43	inactive
EXOSC7	2	-1.05	-4.43	2.35	inactive
EXOSC7	3	-0.249	1.21	4.56	inactive
H4C1	1	0.629	7.39	7.07	inactive
H4C1	2	-0.0665	2.5	4.19	inactive
H4C1	3	-0.429	-0.0494	2.97	inactive
FHL2	1	-0.328	0.66	3.72	inactive
FHL2	2	0.141	3.96	6.7	inactive
FHL2	3	0.809	8.66	6.25	inactive
LAMTOR1	1	-0.711	-2.04	3.74	inactive
LAMTOR1	2	-0.254	1.18	4.63	inactive
LAMTOR1	3	-0.352	0.493	3.29	inactive
HECTD1	1	-0.799	-2.65	3.12	inactive
HECTD1	2	-0.422	-0.00513	4.19	inactive
HECTD1	3	-0.0116	2.89	7.47	inactive
EIF5A	1	-0.0279	2.77	6.24	inactive
EIF5A	2	2.96	23.8	14.3	inactive
EIF5A	3	1.14	11	7.58	inactive
SNX19P3	1	-0.393	0.204	3.85	inactive
SNX19P3	2	3.32	26.3	13	inactive
SNX19P3	3	-0.0718	2.46	3.83	inactive
SNX19P3	4	0.687	7.8	6.72	inactive
SNX19P3	5	0.157	4.07	4.74	inactive
SNX19P3	6	0.933	9.53	6.07	inactive
SNX19P3	7	-0.904	-3.39	2.5	inactive
SNX19P3	8	-0.704	-1.99	2.49	inactive
SNX19P3	9	0.377	5.62	4.83	inactive
PIN4P1	1	1.79	15.6	9.9	inactive
PIN4P1	2	0.269	4.86	4.88	inactive
PIN4P1	3	2.11	17.8	10	inactive
PTX3	1	-0.239	1.29	5.52	inactive
PTX3	2	-0.279	1.01	4.62	inactive
PTX3	3	-0.459	-0.259	3.26	inactive
C1orf159	1	0.467	6.25	5.84	inactive
C1orf159	2	-0.89	-3.3	2.88	inactive
C1orf159	3	-0.232	1.33	3.63	inactive
